No constants are given. Whether binding was seen depends on the method and setting. In cells and extracts the contact can be indirect. Some entries that bind do so weakly or less than the wild type.
Tests used:
[1] = target: T1, endogenous β-catenin in rat vascular smooth muscle cells (RASMCs, A7r5) (rat) (UniProt Q9WU82); experiment: co-immunoprecipitation of endogenous proteins, western blot (FIG. 6C)
T1 sequence (looked up): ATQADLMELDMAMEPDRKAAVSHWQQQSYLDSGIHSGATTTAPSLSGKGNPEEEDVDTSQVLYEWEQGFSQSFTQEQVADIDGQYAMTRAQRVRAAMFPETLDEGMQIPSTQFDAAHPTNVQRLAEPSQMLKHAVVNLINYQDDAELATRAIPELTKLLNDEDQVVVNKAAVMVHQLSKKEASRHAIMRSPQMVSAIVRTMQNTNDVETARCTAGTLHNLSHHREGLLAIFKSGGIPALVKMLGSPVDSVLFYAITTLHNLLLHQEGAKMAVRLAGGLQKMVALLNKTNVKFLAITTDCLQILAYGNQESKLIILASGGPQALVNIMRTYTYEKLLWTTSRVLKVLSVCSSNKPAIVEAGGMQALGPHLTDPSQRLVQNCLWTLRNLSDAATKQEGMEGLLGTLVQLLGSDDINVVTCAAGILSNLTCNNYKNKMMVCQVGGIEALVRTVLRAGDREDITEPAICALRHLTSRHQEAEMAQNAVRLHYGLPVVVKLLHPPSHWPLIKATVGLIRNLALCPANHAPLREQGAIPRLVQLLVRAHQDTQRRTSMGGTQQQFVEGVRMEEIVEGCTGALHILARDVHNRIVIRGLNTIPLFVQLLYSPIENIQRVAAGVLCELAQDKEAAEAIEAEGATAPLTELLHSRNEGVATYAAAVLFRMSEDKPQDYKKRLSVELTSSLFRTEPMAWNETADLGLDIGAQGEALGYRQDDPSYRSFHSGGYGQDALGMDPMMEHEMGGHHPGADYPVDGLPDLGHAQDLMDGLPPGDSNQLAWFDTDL

Sequences of proteins named here, by UniProt entry; tags and fusion partners are left off. A change or cut given only in a name is not applied to a line headed by its entry. A line that says so, or that is headed by a name, gives the form on record, which may keep a tag or linker.
endogenous Fat1 in rat aortic smooth muscle cells (RASMCs) (Q9WU10, form named): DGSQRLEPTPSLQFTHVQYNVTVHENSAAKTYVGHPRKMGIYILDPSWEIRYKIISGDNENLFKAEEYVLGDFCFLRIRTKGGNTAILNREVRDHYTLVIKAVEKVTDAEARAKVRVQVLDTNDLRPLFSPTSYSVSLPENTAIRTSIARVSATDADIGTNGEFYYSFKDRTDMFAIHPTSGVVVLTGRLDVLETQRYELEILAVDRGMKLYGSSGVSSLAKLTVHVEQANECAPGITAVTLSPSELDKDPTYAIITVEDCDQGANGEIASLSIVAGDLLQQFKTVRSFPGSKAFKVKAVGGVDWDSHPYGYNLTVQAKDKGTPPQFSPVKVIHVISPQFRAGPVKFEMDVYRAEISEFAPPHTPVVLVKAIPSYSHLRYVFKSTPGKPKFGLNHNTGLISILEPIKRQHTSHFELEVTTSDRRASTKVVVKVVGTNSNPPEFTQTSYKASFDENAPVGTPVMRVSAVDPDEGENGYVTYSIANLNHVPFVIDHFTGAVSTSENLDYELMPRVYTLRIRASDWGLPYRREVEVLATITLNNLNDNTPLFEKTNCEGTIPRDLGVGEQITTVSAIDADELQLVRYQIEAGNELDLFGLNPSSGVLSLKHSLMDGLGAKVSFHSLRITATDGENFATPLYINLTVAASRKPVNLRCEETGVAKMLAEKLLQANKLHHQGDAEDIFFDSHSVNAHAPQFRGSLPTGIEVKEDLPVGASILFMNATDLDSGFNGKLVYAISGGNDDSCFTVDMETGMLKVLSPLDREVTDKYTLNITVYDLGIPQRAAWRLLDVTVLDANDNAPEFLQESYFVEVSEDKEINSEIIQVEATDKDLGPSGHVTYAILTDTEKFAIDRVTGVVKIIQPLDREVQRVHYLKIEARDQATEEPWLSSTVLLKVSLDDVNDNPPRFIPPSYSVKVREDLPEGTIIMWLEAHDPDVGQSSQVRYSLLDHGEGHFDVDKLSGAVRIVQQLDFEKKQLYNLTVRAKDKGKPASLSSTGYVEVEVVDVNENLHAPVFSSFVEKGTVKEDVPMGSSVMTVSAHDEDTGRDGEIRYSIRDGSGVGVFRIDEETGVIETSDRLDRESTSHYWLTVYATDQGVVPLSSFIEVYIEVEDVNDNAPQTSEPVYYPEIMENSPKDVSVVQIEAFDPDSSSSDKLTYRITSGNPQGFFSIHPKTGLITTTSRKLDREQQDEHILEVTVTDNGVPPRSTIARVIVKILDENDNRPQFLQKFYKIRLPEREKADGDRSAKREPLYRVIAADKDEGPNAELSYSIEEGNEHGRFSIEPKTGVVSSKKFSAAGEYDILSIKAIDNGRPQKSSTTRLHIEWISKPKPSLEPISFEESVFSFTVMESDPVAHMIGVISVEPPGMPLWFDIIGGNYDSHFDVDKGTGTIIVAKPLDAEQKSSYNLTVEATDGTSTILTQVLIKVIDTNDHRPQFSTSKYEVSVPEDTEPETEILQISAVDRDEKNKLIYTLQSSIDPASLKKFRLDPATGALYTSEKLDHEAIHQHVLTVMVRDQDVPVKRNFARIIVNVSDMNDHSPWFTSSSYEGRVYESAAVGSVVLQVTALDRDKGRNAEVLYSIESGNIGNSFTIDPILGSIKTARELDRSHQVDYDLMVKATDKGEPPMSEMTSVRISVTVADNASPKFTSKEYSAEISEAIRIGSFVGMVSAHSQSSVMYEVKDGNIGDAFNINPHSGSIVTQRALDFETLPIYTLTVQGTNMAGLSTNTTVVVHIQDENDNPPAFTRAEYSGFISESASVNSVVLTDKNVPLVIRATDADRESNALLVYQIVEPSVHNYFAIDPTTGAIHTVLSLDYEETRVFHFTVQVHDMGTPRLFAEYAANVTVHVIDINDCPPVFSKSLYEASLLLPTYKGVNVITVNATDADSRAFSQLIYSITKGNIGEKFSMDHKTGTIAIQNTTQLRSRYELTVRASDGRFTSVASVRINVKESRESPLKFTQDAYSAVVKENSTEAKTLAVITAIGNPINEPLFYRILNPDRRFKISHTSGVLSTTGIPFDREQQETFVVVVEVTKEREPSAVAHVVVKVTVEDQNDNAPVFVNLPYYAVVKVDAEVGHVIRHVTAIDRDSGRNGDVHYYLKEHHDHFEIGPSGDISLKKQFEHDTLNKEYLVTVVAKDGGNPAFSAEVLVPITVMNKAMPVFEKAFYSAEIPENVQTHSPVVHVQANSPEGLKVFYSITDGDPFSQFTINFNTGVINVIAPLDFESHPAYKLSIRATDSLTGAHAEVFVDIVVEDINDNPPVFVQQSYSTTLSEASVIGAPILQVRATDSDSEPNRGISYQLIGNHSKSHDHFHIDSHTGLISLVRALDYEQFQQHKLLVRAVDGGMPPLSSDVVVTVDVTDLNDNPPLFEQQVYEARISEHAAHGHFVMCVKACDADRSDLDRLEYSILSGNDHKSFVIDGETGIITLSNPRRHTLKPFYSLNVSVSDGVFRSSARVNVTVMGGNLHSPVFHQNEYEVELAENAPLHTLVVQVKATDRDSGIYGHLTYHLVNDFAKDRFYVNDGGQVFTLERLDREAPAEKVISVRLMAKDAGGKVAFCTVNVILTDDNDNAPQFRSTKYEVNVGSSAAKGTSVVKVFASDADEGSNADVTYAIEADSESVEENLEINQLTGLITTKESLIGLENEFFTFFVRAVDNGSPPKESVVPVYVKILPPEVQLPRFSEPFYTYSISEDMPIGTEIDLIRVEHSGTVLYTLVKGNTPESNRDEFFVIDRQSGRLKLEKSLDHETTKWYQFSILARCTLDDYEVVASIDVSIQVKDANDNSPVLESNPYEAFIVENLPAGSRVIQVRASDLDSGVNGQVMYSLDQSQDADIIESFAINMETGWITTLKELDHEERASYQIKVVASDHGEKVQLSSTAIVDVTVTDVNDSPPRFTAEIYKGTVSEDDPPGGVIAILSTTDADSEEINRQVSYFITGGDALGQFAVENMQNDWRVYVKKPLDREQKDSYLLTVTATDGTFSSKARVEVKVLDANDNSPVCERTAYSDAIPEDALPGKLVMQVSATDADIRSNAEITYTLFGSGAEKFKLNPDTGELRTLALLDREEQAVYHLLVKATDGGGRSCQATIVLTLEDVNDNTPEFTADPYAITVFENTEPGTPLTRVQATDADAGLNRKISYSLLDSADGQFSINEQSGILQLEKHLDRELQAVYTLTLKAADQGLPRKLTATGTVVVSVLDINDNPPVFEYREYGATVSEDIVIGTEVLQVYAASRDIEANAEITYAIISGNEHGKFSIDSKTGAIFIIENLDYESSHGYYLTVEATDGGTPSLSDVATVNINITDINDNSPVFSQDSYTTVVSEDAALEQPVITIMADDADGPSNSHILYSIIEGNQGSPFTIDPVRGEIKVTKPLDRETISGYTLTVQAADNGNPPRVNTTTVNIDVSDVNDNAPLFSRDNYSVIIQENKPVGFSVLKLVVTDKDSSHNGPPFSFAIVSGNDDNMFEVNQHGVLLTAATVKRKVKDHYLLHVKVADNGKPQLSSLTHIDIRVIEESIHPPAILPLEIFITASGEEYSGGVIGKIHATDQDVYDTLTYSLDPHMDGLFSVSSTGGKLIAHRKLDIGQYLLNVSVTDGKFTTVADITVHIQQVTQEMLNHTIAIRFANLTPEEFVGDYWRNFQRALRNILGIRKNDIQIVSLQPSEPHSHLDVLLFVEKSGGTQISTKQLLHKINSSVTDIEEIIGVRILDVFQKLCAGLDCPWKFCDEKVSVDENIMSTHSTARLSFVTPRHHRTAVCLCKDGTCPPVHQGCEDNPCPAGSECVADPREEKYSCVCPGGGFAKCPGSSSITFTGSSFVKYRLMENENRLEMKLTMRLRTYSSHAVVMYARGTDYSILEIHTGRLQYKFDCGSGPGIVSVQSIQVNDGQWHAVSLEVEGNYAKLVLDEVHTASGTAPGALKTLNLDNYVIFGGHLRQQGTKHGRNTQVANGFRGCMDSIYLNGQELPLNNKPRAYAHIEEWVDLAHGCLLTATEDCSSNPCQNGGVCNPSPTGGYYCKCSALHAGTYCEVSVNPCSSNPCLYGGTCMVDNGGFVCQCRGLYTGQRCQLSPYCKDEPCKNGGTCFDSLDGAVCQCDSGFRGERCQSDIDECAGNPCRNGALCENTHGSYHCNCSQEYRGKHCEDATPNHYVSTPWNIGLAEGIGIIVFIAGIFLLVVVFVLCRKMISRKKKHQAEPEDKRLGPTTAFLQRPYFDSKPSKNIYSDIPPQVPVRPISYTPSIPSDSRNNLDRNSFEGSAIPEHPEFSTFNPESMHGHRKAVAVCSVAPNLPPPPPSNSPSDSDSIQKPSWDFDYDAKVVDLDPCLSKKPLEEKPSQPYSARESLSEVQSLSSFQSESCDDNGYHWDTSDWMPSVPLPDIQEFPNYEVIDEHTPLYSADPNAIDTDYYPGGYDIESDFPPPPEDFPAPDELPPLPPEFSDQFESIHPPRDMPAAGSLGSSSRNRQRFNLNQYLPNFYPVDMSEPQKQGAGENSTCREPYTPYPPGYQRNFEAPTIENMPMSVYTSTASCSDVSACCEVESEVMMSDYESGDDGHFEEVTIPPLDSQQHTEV

[2] = target: T1, endogenous β-catenin in rat vascular smooth muscle cells (RASMCs, A7r5) (rat); experiment: co-immunoprecipitation of endogenous proteins
[3] = target: T1, endogenous β-catenin in rat vascular smooth muscle cells (RASMCs, A7r5) (rat); experiment: reciprocal co-immunoprecipitation of endogenous proteins from RASMC lysates, western blot

Measured: binding

endogenous Fat1 in rat aortic smooth muscle cells (RASMCs) (from UniProt Q9WU10 22-4589) (receptor)
binds: all assays above

— patent US20090117169A1
